The record followed here is patent publication US20220273823A1 (Ariel Scientific Innovations Ltd., priority 2019, published 2022).

The data set is described as follows: Time-dependent absorption/fluorescence CLB cleavage profiles of XCy-CLB and OCTA-G-XCy-CLB in PB and cell medium. Type of data set: in vitro ADME. The following applies: for CLB release in CM faster compared to PB: CM vs PB; for acceleration of drug release by linkage of OCTA to the conjugate (factor): vs XCy-CLB. How it is done:
To estimate the rate of the CLB release, the time-dependent absorption and fluorescence spectra of XCy-CLB and OCTA-G-XCy-CLB were measured in PB and CM (see, FIGS. 5A-H). With respect to time, the absorption band at about 600 nm decreases, a new band at about 680 nm increases and a fluorescence band subsequently appears at ˜708 nm (λex=650 nm).
Based of the time-dependent absorption and emission spectra, corresponding drug cleavage profiles were obtained (see, FIGS. 6A-B) and the drug release rates were quantified by half-lives (τ1/2). The cleavage profiles and half-lives obtained spectrophotometrically and spectrofluorometrically almost coincide. […] The release of CLB from OCTA-G-XCy-CLB in CM (τ1/2˜25 min) is […] faster than that in PB τ1/2 ˜2.5 h. Thus, the drug release for both XCy-CLB and OCTA-G-XCy-CLB in CM is much faster compared to PB. The obtained half-lives of the ester bond cleavage in these media were found in good agreement with some reported data. Linkage of OCTA to the conjugate accelerates the drug release by factor of 6 in PB and 1.3 in CM.
Absorption spectra were recorded on a Jasco V-730 UV-Vis spectrophotometer and the fluorescence spectra were measured on Edinburgh FS5 spectrofluorometer. The absorption and fluorescence spectra were measured in 1-cm quartz cells at about 0.5 μM dye concentrations in PB 10 mmol buffer pH 7.4 at 25° C. and cell medium pH 7.4. Excitation wavelength was 650 nm. All the solutions were filtered in PVDF 0.45 μm filter before taking spectrum.

With `C[C@@H](O)[C@H](NC(=O)[C@@H]1CSSC[C@H](NC(=O)[C@H](Cc2ccccc2)NC(=O)CCCNC(=O)CCCCC[N+]2=C(/C=C/C3=C4Oc5cc(OC(=O)CCCc6ccc(N(CCCl)CCCl)cc6)ccc5C=C4CCC3)C(C)(C)c3ccccc32)C(=O)N[C@@H](Cc2ccccc2)C(=O)N[C@@H](Cc2c[nH]c3ccccc23)C(=O)N[C@@H](CCCCN)C(=O)N[C@@H]([C@@H](C)O)C(=O)N1)C(N)=O` [OCTA-G-XCy-CLB], the “CLB release in CM faster compared to PB” value is reported as 4 fold. Also, the “acceleration of drug release by linkage of OCTA to the conjugate (factor)” value (in CM) came to 1.3. For the same compound, the “acceleration of drug release by linkage of OCTA to the conjugate (factor)” value (in PB) is recorded as 6.

In the case of `CC1(C)C(/C=C/C2=C3Oc4cc(OC(=O)CCCc5ccc(N(CCCl)CCCl)cc5)ccc4C=C3CCC2)=[N+](CCCCCC(=O)O)c2ccccc21` [XCy-CLB, (E)-2-(2-(6-((4-(4-(bis(2-chloroethyl)amino)phenyl)butanoyl)oxy)-2,3-dihydro-1H-xanthen-4-yl)vinyl)-1-(5-carboxypentyl)-3,3-dimethyl-3H-indol-1-ium], the “CLB release in CM faster compared to PB” value was “about 12 fold”.
